Source: article PMC4919504

The chains behind the UniProt entries cited, without tags or fusion partners. Where a name states a change or a piece, a line headed by the entry shows the natural chain unless it says otherwise. Residues count along the entry.
UniProt Q14160: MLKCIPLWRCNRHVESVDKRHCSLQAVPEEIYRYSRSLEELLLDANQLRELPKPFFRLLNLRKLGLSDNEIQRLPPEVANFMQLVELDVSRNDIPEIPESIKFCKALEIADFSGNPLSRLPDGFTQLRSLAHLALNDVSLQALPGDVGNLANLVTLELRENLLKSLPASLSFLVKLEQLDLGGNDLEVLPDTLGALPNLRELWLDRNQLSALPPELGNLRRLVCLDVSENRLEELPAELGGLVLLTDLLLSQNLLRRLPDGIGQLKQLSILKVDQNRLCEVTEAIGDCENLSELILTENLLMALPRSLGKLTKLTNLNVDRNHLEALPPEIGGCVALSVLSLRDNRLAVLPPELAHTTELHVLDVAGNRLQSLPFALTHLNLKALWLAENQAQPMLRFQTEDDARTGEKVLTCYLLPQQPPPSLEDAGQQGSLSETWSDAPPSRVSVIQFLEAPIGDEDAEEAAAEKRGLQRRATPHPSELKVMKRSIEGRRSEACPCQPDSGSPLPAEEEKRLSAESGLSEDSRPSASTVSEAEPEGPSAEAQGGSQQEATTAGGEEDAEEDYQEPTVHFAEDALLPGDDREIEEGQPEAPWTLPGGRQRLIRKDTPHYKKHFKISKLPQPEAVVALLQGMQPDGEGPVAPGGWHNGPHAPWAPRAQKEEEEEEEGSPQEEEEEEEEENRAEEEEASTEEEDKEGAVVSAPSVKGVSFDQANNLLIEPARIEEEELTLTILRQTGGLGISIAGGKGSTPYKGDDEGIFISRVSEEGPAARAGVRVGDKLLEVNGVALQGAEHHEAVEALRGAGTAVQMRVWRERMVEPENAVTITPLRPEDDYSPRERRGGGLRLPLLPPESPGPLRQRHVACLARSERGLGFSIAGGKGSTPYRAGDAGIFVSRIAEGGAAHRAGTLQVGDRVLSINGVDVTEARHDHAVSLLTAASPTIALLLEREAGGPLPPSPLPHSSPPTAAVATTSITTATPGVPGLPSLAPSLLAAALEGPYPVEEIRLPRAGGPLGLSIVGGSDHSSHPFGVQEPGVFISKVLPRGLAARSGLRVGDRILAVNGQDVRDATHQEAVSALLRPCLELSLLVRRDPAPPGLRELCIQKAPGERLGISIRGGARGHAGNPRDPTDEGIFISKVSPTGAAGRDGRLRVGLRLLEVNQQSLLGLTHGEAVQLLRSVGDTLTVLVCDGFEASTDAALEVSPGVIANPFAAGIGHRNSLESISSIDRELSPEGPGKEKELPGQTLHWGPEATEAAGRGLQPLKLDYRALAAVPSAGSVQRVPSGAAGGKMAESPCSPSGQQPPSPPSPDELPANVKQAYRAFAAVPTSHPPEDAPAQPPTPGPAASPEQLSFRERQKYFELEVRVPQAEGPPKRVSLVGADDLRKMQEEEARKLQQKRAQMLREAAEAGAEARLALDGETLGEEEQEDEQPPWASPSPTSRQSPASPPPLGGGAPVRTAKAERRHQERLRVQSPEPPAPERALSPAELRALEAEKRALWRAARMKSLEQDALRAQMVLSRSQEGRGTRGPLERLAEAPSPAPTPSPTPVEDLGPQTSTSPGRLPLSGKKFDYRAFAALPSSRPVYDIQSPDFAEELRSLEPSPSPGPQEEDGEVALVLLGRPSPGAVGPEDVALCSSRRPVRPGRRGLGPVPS
truncated GFP-Scribble lacking exons 30-37 (codon 1293 changed to stop): residues 1-1292 of Q14160
UniProt Q9Y2X7: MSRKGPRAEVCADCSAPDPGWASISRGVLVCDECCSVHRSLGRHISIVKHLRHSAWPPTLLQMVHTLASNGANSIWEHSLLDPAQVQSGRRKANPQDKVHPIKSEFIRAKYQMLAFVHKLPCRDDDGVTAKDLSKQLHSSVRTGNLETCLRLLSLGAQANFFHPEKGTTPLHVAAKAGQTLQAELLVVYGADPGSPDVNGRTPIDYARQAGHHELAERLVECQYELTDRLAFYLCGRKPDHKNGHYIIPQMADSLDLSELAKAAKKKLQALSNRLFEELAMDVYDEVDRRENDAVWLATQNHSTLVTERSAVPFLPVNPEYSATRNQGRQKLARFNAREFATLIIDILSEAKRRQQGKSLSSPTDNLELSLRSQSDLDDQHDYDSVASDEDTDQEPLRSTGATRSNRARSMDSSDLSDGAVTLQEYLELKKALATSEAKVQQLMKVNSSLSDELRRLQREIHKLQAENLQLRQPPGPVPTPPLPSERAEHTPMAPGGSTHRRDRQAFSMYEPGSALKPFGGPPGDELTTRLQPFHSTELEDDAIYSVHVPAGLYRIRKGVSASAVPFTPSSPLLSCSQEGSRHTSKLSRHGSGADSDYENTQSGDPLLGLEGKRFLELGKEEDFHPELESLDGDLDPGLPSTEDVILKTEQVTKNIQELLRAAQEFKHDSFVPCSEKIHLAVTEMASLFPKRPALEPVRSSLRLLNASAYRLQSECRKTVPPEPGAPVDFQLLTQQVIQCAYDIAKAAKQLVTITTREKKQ
UniProt P08670: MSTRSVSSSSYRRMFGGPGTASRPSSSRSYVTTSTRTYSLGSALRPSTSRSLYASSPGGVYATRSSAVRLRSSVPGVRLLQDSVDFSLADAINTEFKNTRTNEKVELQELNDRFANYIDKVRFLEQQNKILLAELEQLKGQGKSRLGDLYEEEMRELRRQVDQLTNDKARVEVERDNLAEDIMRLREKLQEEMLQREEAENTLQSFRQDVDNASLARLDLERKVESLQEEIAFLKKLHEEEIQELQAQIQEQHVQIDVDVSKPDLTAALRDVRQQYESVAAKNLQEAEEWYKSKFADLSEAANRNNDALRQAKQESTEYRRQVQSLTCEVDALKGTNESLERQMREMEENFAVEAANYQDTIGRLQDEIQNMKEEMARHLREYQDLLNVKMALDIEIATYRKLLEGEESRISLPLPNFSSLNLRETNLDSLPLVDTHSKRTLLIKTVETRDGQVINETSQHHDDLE
UniProt Q14980: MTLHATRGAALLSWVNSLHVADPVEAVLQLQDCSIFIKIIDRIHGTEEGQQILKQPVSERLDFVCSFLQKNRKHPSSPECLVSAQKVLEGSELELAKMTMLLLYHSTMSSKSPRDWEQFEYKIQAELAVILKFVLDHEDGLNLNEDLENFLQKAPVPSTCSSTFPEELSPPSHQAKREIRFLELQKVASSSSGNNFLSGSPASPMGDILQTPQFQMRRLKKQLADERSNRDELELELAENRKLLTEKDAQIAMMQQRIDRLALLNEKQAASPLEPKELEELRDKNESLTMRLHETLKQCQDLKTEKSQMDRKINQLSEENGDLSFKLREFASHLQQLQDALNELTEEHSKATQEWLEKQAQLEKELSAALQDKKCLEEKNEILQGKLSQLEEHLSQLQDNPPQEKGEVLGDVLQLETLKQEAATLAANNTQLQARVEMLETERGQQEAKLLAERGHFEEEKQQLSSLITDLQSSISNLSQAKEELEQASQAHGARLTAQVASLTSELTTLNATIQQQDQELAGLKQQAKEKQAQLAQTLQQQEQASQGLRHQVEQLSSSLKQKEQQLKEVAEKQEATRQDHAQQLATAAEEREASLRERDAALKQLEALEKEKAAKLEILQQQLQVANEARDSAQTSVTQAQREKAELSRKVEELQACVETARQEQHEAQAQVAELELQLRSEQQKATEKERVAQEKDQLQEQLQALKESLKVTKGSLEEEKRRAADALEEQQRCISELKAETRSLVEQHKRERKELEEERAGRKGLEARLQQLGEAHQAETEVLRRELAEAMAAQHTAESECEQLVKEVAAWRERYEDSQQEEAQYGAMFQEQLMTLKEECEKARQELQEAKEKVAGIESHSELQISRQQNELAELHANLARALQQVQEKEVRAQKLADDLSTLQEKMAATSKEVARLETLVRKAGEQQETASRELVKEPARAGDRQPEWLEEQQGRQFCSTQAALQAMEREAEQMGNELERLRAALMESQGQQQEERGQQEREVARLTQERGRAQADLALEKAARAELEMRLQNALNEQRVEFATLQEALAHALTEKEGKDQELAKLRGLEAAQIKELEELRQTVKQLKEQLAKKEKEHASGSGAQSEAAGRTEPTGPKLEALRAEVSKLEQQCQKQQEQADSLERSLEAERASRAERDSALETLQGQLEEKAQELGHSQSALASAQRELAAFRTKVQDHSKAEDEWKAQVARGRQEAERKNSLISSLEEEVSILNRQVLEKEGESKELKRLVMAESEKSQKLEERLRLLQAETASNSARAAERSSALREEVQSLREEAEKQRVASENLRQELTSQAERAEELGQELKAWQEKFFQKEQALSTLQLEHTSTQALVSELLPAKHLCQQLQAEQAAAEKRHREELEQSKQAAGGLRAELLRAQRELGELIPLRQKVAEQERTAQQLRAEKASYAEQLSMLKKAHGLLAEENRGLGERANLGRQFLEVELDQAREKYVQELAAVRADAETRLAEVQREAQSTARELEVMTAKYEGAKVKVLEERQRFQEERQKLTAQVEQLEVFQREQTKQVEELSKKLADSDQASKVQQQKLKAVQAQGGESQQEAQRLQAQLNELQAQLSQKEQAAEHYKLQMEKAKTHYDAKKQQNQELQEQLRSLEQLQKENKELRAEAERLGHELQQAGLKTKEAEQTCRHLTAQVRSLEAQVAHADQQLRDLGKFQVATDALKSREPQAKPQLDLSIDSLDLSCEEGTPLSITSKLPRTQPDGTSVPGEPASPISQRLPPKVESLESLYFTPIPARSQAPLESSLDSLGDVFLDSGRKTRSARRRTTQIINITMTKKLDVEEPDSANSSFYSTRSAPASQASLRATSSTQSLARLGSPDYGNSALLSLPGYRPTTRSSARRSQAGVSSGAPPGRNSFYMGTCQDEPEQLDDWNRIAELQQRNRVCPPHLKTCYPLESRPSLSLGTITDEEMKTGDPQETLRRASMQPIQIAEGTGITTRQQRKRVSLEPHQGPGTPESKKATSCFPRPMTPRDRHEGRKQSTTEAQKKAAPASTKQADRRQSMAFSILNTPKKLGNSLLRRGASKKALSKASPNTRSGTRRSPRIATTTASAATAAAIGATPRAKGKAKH
UniProt Q14155: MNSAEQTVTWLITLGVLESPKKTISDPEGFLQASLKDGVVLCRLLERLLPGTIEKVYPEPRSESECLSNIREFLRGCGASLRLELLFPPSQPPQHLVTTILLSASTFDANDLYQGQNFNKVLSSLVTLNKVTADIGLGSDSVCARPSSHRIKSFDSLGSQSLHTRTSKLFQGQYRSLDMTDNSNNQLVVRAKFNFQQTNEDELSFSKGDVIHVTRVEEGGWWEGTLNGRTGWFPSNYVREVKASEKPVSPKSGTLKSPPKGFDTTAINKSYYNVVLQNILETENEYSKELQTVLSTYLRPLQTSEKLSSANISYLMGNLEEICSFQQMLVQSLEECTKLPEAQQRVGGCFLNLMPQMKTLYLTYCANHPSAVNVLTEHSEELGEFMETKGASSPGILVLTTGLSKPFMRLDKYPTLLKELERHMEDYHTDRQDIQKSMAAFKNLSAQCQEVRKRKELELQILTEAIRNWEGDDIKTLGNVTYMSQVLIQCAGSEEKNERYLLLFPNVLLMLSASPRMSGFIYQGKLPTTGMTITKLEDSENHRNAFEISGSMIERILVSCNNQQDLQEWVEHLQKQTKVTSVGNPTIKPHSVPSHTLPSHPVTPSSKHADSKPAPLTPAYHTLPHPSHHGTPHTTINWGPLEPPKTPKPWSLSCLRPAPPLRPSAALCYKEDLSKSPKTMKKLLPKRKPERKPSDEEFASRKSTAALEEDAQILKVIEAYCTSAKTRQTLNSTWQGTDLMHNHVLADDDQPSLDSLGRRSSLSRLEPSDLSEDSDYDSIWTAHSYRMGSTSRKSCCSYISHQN

Tests used:
[1] = target: GFP-Scribble (wild type) (human) (UniProt Q14160); assay: affinity purification with mass spectrometry; GFP-Scribble (wild type or mutant) precipitated with anti-GFP antibody (B-2) and protein A/G magnetic beads from lysates of transfected HEK293T cells (1% Igepal, 50 mM Tris-HCl pH 6.8, RT); on-bead trypsin digest, LC-MS/MS, spectral counts
[2] = target: GFP-Scribble S1448A (human) (UniProt Q14160); assay: as above
[3] = target: GFP-Scribble S1448D (human) (UniProt Q14160); assay: as above
[4] = target: truncated GFP-Scribble lacking exons 30-37 (codon 1293 changed to stop) (human) (UniProt Q14160); assay: as above
[5] = target: endogenous Scribble (human (endogenous in HEK293)) (UniProt Q14160); assay: affinity purification with mass spectrometry; endogenous Scribble precipitated (anti-Scribble C-6) from HEK293 cells arrested by nocodazole; Numa1 quantified by targeted mass spectrometry (SRM of …)
[6] = target: endogenous Scribble (human (endogenous in HEK293)) (UniProt Q14160); assay: condition: only cells in other phases of the cell cycle (not arrested by nocodazole); affinity purification with mass spectrometry; endogenous Scribble precipitated (anti-Scribble C-6) from cell cycle-synchronized HEK293 cells in phases other than the nocodazole arrest; Numa1 quantified by targeted mass spectrometry

binding [1]	binding [2]	binding [3]	binding [4]	binding [5]	binding [6]	Substance
binds	binds	binds	binds			Git1 (from UniProt Q9Y2X7 1-761)
binds	binds	binds				Vimentin (from UniProt P08670 1-466)
binds		binds		binds	no binding	nuclear mitotic apparatus protein Numa1 (from UniProt Q14980 1-2115)
binds	binds	binds	binds			Beta-pix (from UniProt Q14155 1-803)

Results are given in words; binding and its absence hold for the method and conditions named. Binding seen in cells or lysates may run through a third protein. Here binding means that the protein was enriched with, or labelled near, the bait; the list need not be complete. For part of these data: No binding means not detected with the bait.
